Laboratory results taken from PMC5241945, “A new enzyme-linked immunosorbent assay (ELISA) for human free and bound kallikrein 9” (Clinical Proteomics, 2017).

The chains behind the UniProt entries cited, without tags or fusion partners. Where a name states a change or a piece, a line headed by the entry shows the natural chain unless it says otherwise.
UniProt Q9UKQ9: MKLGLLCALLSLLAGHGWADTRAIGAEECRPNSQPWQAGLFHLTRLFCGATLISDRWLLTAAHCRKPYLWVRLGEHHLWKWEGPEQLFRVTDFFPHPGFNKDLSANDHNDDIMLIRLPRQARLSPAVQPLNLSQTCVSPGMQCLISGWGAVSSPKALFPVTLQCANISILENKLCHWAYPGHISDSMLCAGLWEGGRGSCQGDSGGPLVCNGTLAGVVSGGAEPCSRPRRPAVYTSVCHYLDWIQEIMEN

Tests used:
[1] = biological target: KLK9, endogenous in ovarian cancer ascites (a1-antichymotrypsin-bound form) (human (endogenous in ovarian cancer ascites)) (UniProt Q9UKQ9); assay: SEC + ELISA; ascites diluted 10 times in 0.1 M NaH2PO4, 0.1 M Na2SO4 pH 6.8, fractionated on TSKGEL G3000SW; 1 mL fractions analysed by KLK9 ELISA and by KLK9-ACT hybrid ELISA (28ED436 capture, rabbit pAb anti-serpinA3 detection)
[2] = biological target: KLK9, endogenous in ovarian cancer ascites (a1-antichymotrypsin-bound form) (human (endogenous in ovarian cancer ascites)) (UniProt Q9UKQ9); assay: ELISA; hybrid sandwich immunoassay on unfractionated ascites: anti-KLK9 mAb 28ED436 coated for capture, sample diluted in Buffer B (50 mM Tris pH 7.8, 0.5 M KCl, BSA, sera), rabbit pAb anti-serpinA3 for detection, ALP-conjugated goat anti-rabbit IgG, time-resolved fluorescence, RT

binding [1]: binds
binding [2]: binds
B1: a1-antichymotrypsin (ACT), endogenous in ovarian cancer ascites (protein, UniProt P01011 24-423)
chain: HPNSPLDEENLTQENQDRGTHVDLGLASANVDFAFSLYKQLVLKAPDKNVIFSPLSISTALAFLSLGAHNTTLTEILKGLKFNLTETSEAEIHQSFQHLLRTLNQSSDELQLSMGNAMFVKEQLSLLDRFTEDAKRLYGSEAFATDFQDSAAAKKLINDYVKNGTRGKITDLIKDLDSQTMMVLVNYIFFKAKWEMPFDPQDTHQSRFYLSKKKWVMVPMMSLHHLTIPYFRDEELSCTVVELKYTGNASALFILPDQDKMEEVEAMLLPETLKRWRDSLEFREIGELYLPKFSISRDYNLNDILLQLGIEEAFTSKADLSGITGARNLAVSQVVHKAVLDVFEEGTEASAATAVKITLLSALVETRTIVRFNRPFLMIIVPTDTQNIFFMSKVTNPKQA

Results are given in words; binding and its absence hold for the method and conditions named. Binding can be weak; no strength is given.
